Measurements taken from patent US20160228444A1, “NUCLEOSIDE ANALOGS AND USES THEREOF” (Ramot at Tel-Aviv University Ltd., priority 2015, published 2016).
Where two headings read alike, the source gives them in different places.

Legend:
[1] = system: Hut-78 CTLC cell line; assay: MTT cell viability assay, 48 hours; type: cell-based, human
Protocol: (§1) […]. The MyLa CTLC cell line (originating from an indolent mycosis fungoides patient) and the Hut-78 CTLC cell line (originating from an aggressive Sézary patient) were used to evaluate toxicity towards cancer cells, and peripheral blood lymphocytes (PBLs) from healthy volunteers were used to evaluate toxicity towards noncancerous cells.
(§2) Cell viability was determined by an MTT cell viability assay after 48 hours. MyLa cells (10^4 cells/well), Hut78 cells (5×10^3 cells/well) and normal PBLs (10^5 cells/well) were seeded in 96 well-plates. The PBLs were activated with 40 μg/10^6 cells of phytohemagglutinine (PHA) for 24 h before the experiment.

[2] = system: MyLa CTLC cell line; assay: MTT cell viability assay, 48 hours; type: cell-based, human
Protocol: as §1, §2

[3] = system: peripheral blood lymphocytes (PBLs) from healthy volunteers; assay: MTT cell viability assay, 48 hours; type: cell-based; conditions: Homo sapiens, Lymphocyte, PHA-activated normal PBLs
Protocol: as §1, §2

[4] = system: MDA-231 cells; assay: Median-effect drug interaction, Hoechst viability, 72 h; type: cell-based; conditions: Homo sapiens
Protocol: (§3) The ratios of the drug combination were based on the ratio of their IC50 of each drug alone. Cell viability was determined by MTT assay, as described hereinabove. The drugs were added to the cells and incubated for 72 h.
Drug interaction in adherent cells was evaluated as above except that the viability was determined by Hoechst assay.

[5] = system: HUT-78 CTCL cells; assay: Median-effect drug interaction, MTT viability, 72 h; type: cell-based; conditions: Homo sapiens, HuT78
Protocol: as §2
as §3, with “The interaction between AN446 or SAHA with Dox was evaluated in PBLs and cancer cells according to the median-effect method. The ratios” for “The ratios”

[6] = system: PBL; assay: as above; type: cell-based; conditions: Homo sapiens
Protocol: as §2
as §3, with “The interaction between AN446 or SAHA with Dox was evaluated in PBLs and cancer cells according to the median-effect method. The ratios” for “The ratios”

[7] = system: U251 cells; assay: Hoechst viability assay 72 h / median-effect combination study; conditions: Homo sapiens, U-251, 72 h, read-out: IC50 value for viability in U251 cells after 72 hours

In the case of `O=C(CCCCCCC(=O)Nc1ccccc1)NO` [SAHA, suberanilohydroxamic acid], the IC50 ([1]; Homo sapiens, HuT78, MTT, 48 hours) is reported as 700 ± 50 nM, the “toxicity to Hut-78 cells relative to normal PBLs” value ([1]; from Table 1 IC50 values) is reported as “only moderately more toxic to Hut-78 cells than to PBLs” and the IC50 ([2]; Homo sapiens, MTT, 48 hours) is reported as 4300 ± 180 nM. For the same compound, the “toxicity to MyLa cells relative to normal PBLs” value ([2]; from Table 1 IC50 values) was “more toxic to PBLs than to MyLa cells”, the IC50 [3] was 2500 ± 100 nM and the IC50 ([4]; MDA-MB-231, MDA-231, in combination with Dox, read-out: com IC50) was 630 nM. For the same compound, the IC50 ([4]; MDA-MB-231, MDA-231, single agent, Table 2, read-out: IC50) was 100 nM, the IC50 ([4]; MDA-MB-231, MDA-231, single agent, Table 3, read-out: IC50) was 1200 ± 300 nM and the IC50 ([5]; HUT-78, in combination with Dox, read-out: com IC50) was 630 nM. For the same compound, the IC50 ([5]; HUT-78, single agent, Table 2, read-out: IC50) was 640 nM, the IC50 ([6]; in combination with Dox, read-out: com IC50) was 500 nM and the IC50 ([6]; single agent, Table 2, read-out: IC50) was 2500 nM. It also gave an IC50 [7] of 1000 nM.
